Data published in publication PMC12040169 (PLOS Biology, 2025).
Some of the results follow.

Tested on: T1, CTL2-GFP (C. trachomatis L2/434/Bu, GFP-expressing)
T1 construct: L2/434/Bu, GFP-expressing
Parameters: species or system HeLa; Intracellular C. trachomatis growth in HeLa cells, bulk GFP fluorescence relative to DMSO
Conditions: bulk GFP, single well; 28.5 h, 10 µM; inhibitor

In order of falling “% of control remaining” value:
1. Cc1nc2c(ccc3nc(NC(=O)c4ccccc4)sc32)s1 [CBK287560]  195.561%
2. Cc1cccc(-c2ncc(NC(=O)c3ccccn3)nc2-c2ccc(N)cc2)c1 [CBK036694]  192.804%
3. O=C(CSc1nnc(-c2ccncc2)s1)NNC(=O)c1cccs1 [CBK269600]  175.338%
4. CN1CCN(c2nc(-c3cccc(F)c3)cnc2N)CC1 [CBK063433]  161.629%
5. CCC1CCCCN1C(=O)C1CCCCC1 (stereo not shown) [CBK084528]  151.875%
6. CCCn1nc(C)c(-c2cncn2CC(C)N2CCC(C)CC2)c1C (stereo not shown) [CBK281791]  144.098%
7. CN(CC(=O)N1CCC[C@@H]2[C@H]1C/C=C/Cc1ccccc1OCC(=O)N2C)Cc1ccccn1 [CBK292078]  143.906%
8. Nc1cccc(Oc2ccc3c(c2)C(=O)N(CCC(=O)O)C3=O)c1 [CBK287186]  142.581%
9. Cn1cc([C@H]2C[C@@H](O)[C@@H](CO)O2)c(=O)[nH]c1=O [CBK201171]  142.52%
10. O=C(NC1CCCCC1)N1C[C@@H]2C[C@H](C1)c1ccc(-c3cccnc3)c(=O)n1C2 [CBK289183]  141.137%
11. COc1cccc(CNC(=O)c2cc3c(nc2N)CCN(Cc2cccc(C)c2OC)C3)c1 [CBK285682]  141.13%
12. Cc1ccc(S(=O)(=O)Cc2cccc(C(=O)N3CCN(Cc4ccccc4)CC3)c2)cc1 [CBK269596]  141.028%
13. Cc1ccc(OC2(C(=O)N3CCCC3C(F)(F)F)CCNCC2)cc1 (stereo not shown) [CBK307226]  140.731%
14. Cn1c(=O)n(CC#N)c2ccccc21 [CBK025636]  138.985%
15. O=C(NCCc1c[nH]c2ccc(Cl)cc12)c1ccoc1 [CBK159782]  138.651%
16. O=CN1CCc2c([nH]c3cc(F)ccc23)C12CCN(CCc1cccs1)CC2 [CBK040312]  137.715%
17. COCCNCc1cccc(OCc2ccccc2)c1 [CBK269864C]  135.233%
18. Cn1c(=O)n(C)c2cc(S(=O)(=O)Nc3ccc(Cl)c(C(=O)O)c3)ccc21 [CBK299841]  129.977%
19. O=C1CC2(CCN(C(=O)c3ccccn3)CC2)Oc2ccc(Br)cc21 [CBK156443]  129.649%
20. O=C(O)c1ccc(NC(=O)c2cn(-c3ccccc3)nc2-c2ccccc2)cc1 [CBK296120]  129.075%
21. CCC1(C)CC(C(CCN)c2ccc(C)cc2)CCO1 (stereo not shown) [CBK027350]  126.067%
22. Cc1cn(CC(=O)N2CCN(C(=O)c3ccco3)CC2)c(=O)[nH]c1=O [CBK144472]  125.987%
23. COc1ccc([N+](=O)[O-])cc1COc1ccc2ccc(=O)oc2c1 [CBK264597]  123.065%
24. O=C(Nc1ccc(F)cc1)c1c(NS(=O)(=O)c2ccc(Oc3ccccc3)cc2)sc2c1CCCC2 [CBK028653]  122.553%
25. CCOc1cc(/C=C2/SC(=S)N(c3cccc(C(F)(F)F)c3)C2=O)ccc1OCC(=O)O [CBK264965]  120.435%
26. CN(C)CCn1c([C@@H]2CCCO2)cc2cccnc21 [CBK282288]  117.318%
27. Cc1ccc(NS(=O)(=O)c2cc(C(=O)Nc3cccc(N(C)S(C)(=O)=O)c3)ccc2C)c(C)c1 [CBK268220]  116.324%
28. C=C(C)Cn1c(SCC(C)C)nnc1-c1ccccc1Cl [CBK200078]  115.6%
29. Cc1nc(-c2ccccc2)nc2c1c(N)nn2CC(=O)O [CBK287109]  114.252%
30. COc1ccccc1CCCNC(=O)c1ccc2nc(C)[nH]c2c1 [CBK283258]  114.162%
31. COc1ccc(N(CC(=O)O)S(=O)(=O)c2ccccc2)c(OC)c1 [CBK262415]  113.818%
32. O=C(CCN1C(=O)c2cccc([N+](=O)[O-])c2C1=O)Nc1ccccc1Cl [CBK263121]  112.528%
33. COc1ccc(C2Nc3ccccc3C(=O)N2Cc2ccccc2)cc1COc1ccc([N+](=O)[O-])cc1 (stereo not shown) [CBK033690]  112.495%
34. COc1ccc(C(=O)OC(C)(C)C)c(-c2cncc(NC3CCC(N)CC3)n2)c1 (stereo not shown) [CBK037922]  106.892%
35. CCOc1ccc2c(c1)CN(CC(=O)Nc1cc(C)no1)CC2 [CBK305993]  105.847%
36. Cc1cn(CC(=O)N2CCC3(CCN(Cc4ccccc4)C3)C2)c(=O)[nH]c1=O (stereo not shown) [CBK136840]  104.015%
37. C=CCn1c2ccccc2c2nnc(SCc3ccc([N+](=O)[O-])cc3)nc21 [CBK265630]  101.373%
38. Cc1ccn(CCC(=O)NC(Cc2ccsc2)c2nccs2)n1 (stereo not shown) [CBK285137]  100.566%
39. CC(=O)NCCNC(=O)c1cc(-c2cccc(S(C)(=O)=O)c2)cnc1NCC1CC1 [CBK076351]  100%
40. Cc1ccc(N(Cc2cc3ccccc3nc2O)C(=O)c2cccnc2)cc1 [CBK265442]  100%
41. CN(C)CCN(Cc1ccccc1)Cc1ccc([N+](=O)[O-])cc1 [CBK261929]  100%
42. O=C1c2cccc3cccc(c23)C(=O)N1CCN1CCN(CC(O)COc2ccc3c(c2)OCO3)CC1 (stereo not shown) [CBK074849C]  100%
43. O=C(Cn1cccnc1=O)NCc1cccnc1OCC(F)(F)F [CBK305949]  98.5993%
44. CS(=O)(=O)c1ccc(-c2nccnc2N[C@@H]2CCN(Cc3ccccc3)C2)cc1 [CBK037667]  96.1438%
45. Cc1cc(NC(=O)Cn2cc(Br)cn2)no1 [CBK305706]  94.4174%
46. COc1ccc(CNC(=O)[C@H]2C=CCN2C(=O)C2CC2)cc1 [CBK282326]  88.0372%
47. NCCSC1CC(=O)N(Cc2ccc(F)cc2)C1=O (stereo not shown) [CBK269025C]  77.646%
48. O=C(CNC1CCN(Cc2ccccc2)CC1)Nc1ccc(Cl)cc1C(=O)c1ccccc1Cl [CBK074770]  61.6108%
49. CC(=O)c1cc(-c2cccnc2)cs1 [CBK017637]  18.1316%
